Experimental data: PubChem BioAssay AID1508600 (Functional Genomics Laboratory (NCATS/FGL), 2020)
About 3,700 (7%) of roughly 53,000 sequences were called active.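 How the source made its calls: active means gene knockdowns whose robust z-score for IL-1 alpha signal is at least 2 or at most -2, so actives lie on both sides; inactive means the rest.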 This is one part of the list.

Test: Components of the Cytosolic LPS Sensing Pathway: Gene Identification via Genome-wide siRNA Screen
Conditions: RAW264.7 macrophages, IL-1a HTRF, actives lie on both sides, screened at 100 nM (by protocol), cells primed 5 h with Pam3CSK4 first
Description: Non-canonical inflammasome activation by cytosolic LPS is a critical component of the host response to Gram-negative bacterial infection, however we lack a comprehensive understanding of the cellular processes that control this pathway. Here we describe a genome-wide siRNA screen to identify genes regulating the mouse macrophage IL-1 alpha response to cytosolic LPS.
RAW264.7 cells were maintained in complete DMEM media, comprising DMEM with 4.5 g/L glucose, 10% FBS (Gemini Bio-Products, West Sacramento, CA), 2 mM Glutamine (Lonza) and 20 mM HEPES (Lonza), hereafter complete DMEM.
The RNAi screen was conducted in 384-well format using the Ambion Silencer Mouse Genome siRNA Library (#4391425), which consists of three unique, nonoverlapping, nonpooled siRNAs for each of 17,000 gene targets. siRNA reagents ([…]) were stamped into 384-well white flat-bottom microplates (Corning, 3570) using a Velocity11 VPrep liquid handling system (Agilent) integrated into a BioCel robotic platform (Agilent) in columns 1-22, leaving columns 23-24 empty for negative (Ambion, Negative control #1) and positive (mouse Casp4) controls, respectively. The median value of each plate's negative control column was used to normalize sample wells, and the positive control was used to assess transfection efficiency and assay performance.
Lipofectamine RNAiMAX Transfection Reagent ([…]; Invitrogen) was added in […] serum-free, antibiotic-free media to plate wells using a Thermo Scientific Matrix WellMate and Microplate Stacker. Plates were incubated for 45 min at room temperature to allow for the sufficient formation of siRNA-lipid complexes. Cells were seeded at a density of 1x10^4 cells per well in 20 microL media containing 20% (vol/vol) FBS without antibiotics. The final concentration of siRNA in each well was 100 nM. Cells were cultured for 48h at 37 degrees C in 5% CO2 before addition of […] of TLR ligand Pam3CSK4 for 5 hours. The medium was then removed, replaced with […] growth media and cell were transfected with […] of LipidA and TransIT-TKO (Mirus) for 24 hour. At the end of the LipidA treatment, […] of supernatant was transferred to a 384 Greiner Bio-one non-binding low volume plate and […] of IL-1a HTRF reagent (Cisbio, 62MIL1APEH) was added and incubated at room temperature overnight. The plates were read on an EnVision plate reader (PerkinElmer). Cell viability was measured by adding 20ul Cell Titer Glo to the original plate and running a luminescence read on the EnVision. The quantified IL-1a signal for each siRNA gene-targeted well was divided by the median of the negative control wells and multiplied by 100 to achieve a negative control normalized value for each well/siRNA. This normalized value was then used to generate a robust z-score by first taking the log of each value and then by subtracting the median and dividing by the […].

| Sequence | z-score |
| --- | --- |
| GCUGUAAACCGAAUCAAAGTT against Khdc4 | inactive: 0.0586 |
| GGCUGAGAACUACUAUUCUTT against Mesp2 | inactive: 1.36 |
| AAGAGGCUUCCGACAAGUGTT against Mt2 | inactive: 0.23 |
| GCUACCUUUUAGUGUCCAUTT against Olfr1462 | inactive: 1.27 |
| GGAGUCAUUGACGGAGGAUTT against Dapk3 | inactive: 0.823 |
| GGCGAGCCAUGUUUGAUGATT against Hs1bp3 | inactive: 0.25 |
| CCAAUUUAUGCCUGAAACUTT against Rhof | inactive: -1.22 |
| GGAGUCAGUGCACAUAAUGTT against Pan2 | inactive: 0.431 |
| GGCGAGAGGAAGAAAGACUTT against Mlph | inactive: 0.87 |
| GGCUUUUCACAAAACUGUUTT against Zfp120 | inactive: 1.07 |
| GGAUGAAGAACCACUCAAATT against Ankzf1 | inactive: -1.06 |
| GGCUAAAAAAAAAUGGUAGTT against Thra | inactive: -0.79 |
| GGAAUACACUCAGAACGCATT against A730008H23Rik | inactive: -1.12 |
| GGCUGUGAUACGACUAAAGTT against Fscn3 | inactive: 1.55 |
| GGAAGGAAGAAAGGGUUCUTT against Olfr1160 | inactive: -0.934 |
| GCUACAUGAUGUUGUGCAGTT against Sec22a | inactive: 0.302 |
| GGACUUUUGAUAGAUGCUATT against Kctd12b | inactive: 1.64 |
| GGCUCAUGUACUGCUACAUTT against Ntsr2 | inactive: -1.25 |
| GCUCACUCUUUCCAACUAUTT against Ubox5 | inactive: 0.465 |
| GCGACUUUAGCUAAACAUGTT against Kcns2 | inactive: 1.79 |
| GGAUUGUUAGCAAAGAAAGTT against Aco1 | inactive: -0.0776 |
| GACCACACUCAUCCAGGCUTT against Gtpbp6 | inactive: 0.817 |
| GGUGGUUAUUUAUUGGUGATT against Sp6 | inactive: -0.272 |

6 entries drawn at random from the list so far, as already listed:

| Sequence | z-score |
| --- | --- |
| GGCUGAGAACUACUAUUCUTT against Mesp2 | inactive: 1.36 |
| GGCGAGCCAUGUUUGAUGATT against Hs1bp3 | inactive: 0.25 |
| GGCUCAUGUACUGCUACAUTT against Ntsr2 | inactive: -1.25 |
| GGCUAAAAAAAAAUGGUAGTT against Thra | inactive: -0.79 |
| AAGAGGCUUCCGACAAGUGTT against Mt2 | inactive: 0.23 |
| GCUCACUCUUUCCAACUAUTT against Ubox5 | inactive: 0.465 |

Continued.

| Sequence | z-score |
| --- | --- |
| GGAAAUGACCUUGGUGUGUTT against Olfr644 | inactive: -0.696 |
| GGAGACUCCUUACGGCAAATT against Bnip1 | inactive: 0.227 |
| GCAACAUUCCUACAAUUAATT against Gsta4 | inactive: 0.457 |
| GGUUCUUCCUCAAAUUCUUTT against Ebf4 | inactive: -0.0406 |
| GCUACCAUUUGAUCAGUUUTT against Entpd1 | inactive: 0.665 |
| GGCCUUACUCUUAAGUUCUTT against Brf1 | active: 3.7 |
| GGUUCAUACCUGUCUUAUUTT against Slc13a4 | inactive: -0.508 |
| GGGUAGUUUUGACUUUGUUTT against Schip1 | inactive: 0.472 |
| GGGAAGCUCAUUGAAGCAGTT against Snrpd3 | inactive: 0.431 |
| GGCAGCUUUGGAACAACUATT against Zc3h14 | inactive: -0.477 |
| GGCUGUACUUCUGUCCCAUTT against Hus1b | inactive: -1.47 |
| GCUGAUACCGUCAUGAAUGTT against Gorasp2 | inactive: -1.58 |
| GGCAGAAAAUUUUAACCAATT against Marchf7 | inactive: -1.09 |
| GCUAGUGUGAUACCAUUUATT against Nab1 | inactive: 1.63 |
| GCUAGAAGUCAUUUUGAAATT against Mme | inactive: 0.0312 |
| GGCGCAGGGAAUAAUCUACTT against Ccdc121 | inactive: -0.302 |
| CCCUCAUUGUGGUUACCAUTT against Olfr1428 | inactive: -0.203 |
| CCUAGUAGCUCAGACACCGTT against Evx1 | inactive: -0.869 |
| GGAAUUCACAUUUGACUGUTT against Irx3os | inactive: 0.31 |
| GGACUAAGCAAUCUCUUUUTT against Gspt2 | inactive: 0.81 |
| GGUCUGCUAUGAAAUUAUGTT against Tmem14c | inactive: -0.537 |
| GGAUCUCCUAAUAUUUAUCTT against Plekha1 | inactive: -0.703 |
| GGUGGAUGAAGAGUAUAAGTT against Phka2 | inactive: 0.338 |

| Sequence | z-score |
| --- | --- |
| GGAGGAACUCGAAUCUCAGTT against Adamts19 | inactive: -0.561 |
| GCACAUCAUUGCUACAGAGTT against Mars1 | inactive: -1.17 |
| CCUUAAAACUUCAGGGCUCTT against 1700055D18Rik | inactive: -0.287 |
| GCUUGUCCACAUUGCCUUCTT against Olfr33 | inactive: 0.716 |
| CCACCAGUUAUCCGAAUCATT against 4932414N04Rik | inactive: 1.36 |
| GGAGUUCAGGAAAAUUCUUTT against Fsd1l | inactive: 0.0551 |
| GGAGCUUCAUCUUUCAAGATT against Uqcrc2 | inactive: -0.0657 |
| GGCUCAGAAAAUUGAUCGATT against Cyth2 | inactive: -1.05 |
| ACUAUCUGUACAACGUGCUTT against Kcnq5 | inactive: -0.166 |
| CGAAAUGAAAACUUCCUGGTT against Mab21l1 | inactive: 0.989 |
| GGUGCAAGAUAGUACGAUGTT against Gle1 | inactive: -0.649 |
| GGUGGAUAUAAUAAUUGACTT against Tgfbr3 | inactive: 1.06 |
| GGGUUGUUUGCUGGUUUGUTT against Tmbim4 | inactive: 0.885 |
| CCUAUGGUAGAAAAAUACUTT against Fundc1 | inactive: -0.252 |
| GCAUUAGAAGAACUACUGATT against Gdpd2 | inactive: -0.0764 |
| GGACUCUUUCGCUGCAUGATT against Sucla2 | inactive: -1.4 |
| GCCCUAGUCUUCUACAGCUTT against Gpr18 | inactive: -0.982 |
| GGAGAUGUUGUUUGCUACUTT against Tango2 | inactive: 0.619 |
| CCUAGACUUGAACAAACACTT against Lsm12 | active: -2.11 |
| GGUGACUGGAAAAGAGGCUTT against Spink1 | inactive: -0.073 |
| GGUUAUCCUUCCCAGAAUUTT against 1110059E24Rik | inactive: 0.776 |
| GGUGAAUUUGAUUGAUGAGTT against Ccnl2 | active: -2.3 |
